Like-named read-outs stand apart in the source and are kept apart here. No constants are given. Whether binding was seen depends on the method and setting. Binding seen in cells or lysates may run through a third protein. Some binding calls cover weakened binding; strength is not graded here. For some of these results: Sequences can lack the tags named with a protein.
Assays:
Test in all cases: co-IP
[1] = biological target: T1, N-terminal Flag-tagged TRIM72 (Flag-TRIM72), full length (UniProt Q6ZMU5)
T1 sequence: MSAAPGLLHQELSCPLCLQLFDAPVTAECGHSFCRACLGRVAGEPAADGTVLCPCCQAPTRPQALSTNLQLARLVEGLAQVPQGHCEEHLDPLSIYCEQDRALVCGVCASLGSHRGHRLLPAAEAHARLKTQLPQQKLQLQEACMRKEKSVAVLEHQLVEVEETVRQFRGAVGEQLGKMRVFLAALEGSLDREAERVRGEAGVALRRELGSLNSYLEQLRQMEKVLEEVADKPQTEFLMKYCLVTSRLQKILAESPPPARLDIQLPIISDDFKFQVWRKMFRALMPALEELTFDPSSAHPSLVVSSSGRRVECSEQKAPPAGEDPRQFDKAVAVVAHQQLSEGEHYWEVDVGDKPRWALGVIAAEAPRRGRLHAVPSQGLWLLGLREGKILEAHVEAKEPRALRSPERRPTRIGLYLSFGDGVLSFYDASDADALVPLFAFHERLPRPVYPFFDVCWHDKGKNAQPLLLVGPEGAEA

Sequences of proteins named here, by UniProt entry; tags and fusion partners are left off. A change or cut given only in a name is not applied to a line headed by its entry.
UniProt Q567U6: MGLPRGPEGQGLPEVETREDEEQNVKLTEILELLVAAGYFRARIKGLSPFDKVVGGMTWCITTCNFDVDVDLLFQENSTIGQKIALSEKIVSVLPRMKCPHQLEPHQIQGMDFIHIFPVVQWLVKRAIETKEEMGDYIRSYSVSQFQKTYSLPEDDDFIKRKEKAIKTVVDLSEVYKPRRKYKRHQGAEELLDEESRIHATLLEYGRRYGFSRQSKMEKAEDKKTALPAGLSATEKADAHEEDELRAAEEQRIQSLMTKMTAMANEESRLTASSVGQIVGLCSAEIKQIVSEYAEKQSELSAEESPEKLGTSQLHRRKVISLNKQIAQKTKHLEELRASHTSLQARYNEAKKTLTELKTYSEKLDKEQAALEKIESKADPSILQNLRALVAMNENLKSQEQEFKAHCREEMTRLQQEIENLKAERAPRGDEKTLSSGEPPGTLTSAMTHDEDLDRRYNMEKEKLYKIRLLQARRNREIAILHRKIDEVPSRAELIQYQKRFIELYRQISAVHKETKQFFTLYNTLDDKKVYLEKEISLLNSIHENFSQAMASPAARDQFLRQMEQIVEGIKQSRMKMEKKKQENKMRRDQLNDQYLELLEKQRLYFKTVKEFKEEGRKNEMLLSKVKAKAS
UniProt P19474: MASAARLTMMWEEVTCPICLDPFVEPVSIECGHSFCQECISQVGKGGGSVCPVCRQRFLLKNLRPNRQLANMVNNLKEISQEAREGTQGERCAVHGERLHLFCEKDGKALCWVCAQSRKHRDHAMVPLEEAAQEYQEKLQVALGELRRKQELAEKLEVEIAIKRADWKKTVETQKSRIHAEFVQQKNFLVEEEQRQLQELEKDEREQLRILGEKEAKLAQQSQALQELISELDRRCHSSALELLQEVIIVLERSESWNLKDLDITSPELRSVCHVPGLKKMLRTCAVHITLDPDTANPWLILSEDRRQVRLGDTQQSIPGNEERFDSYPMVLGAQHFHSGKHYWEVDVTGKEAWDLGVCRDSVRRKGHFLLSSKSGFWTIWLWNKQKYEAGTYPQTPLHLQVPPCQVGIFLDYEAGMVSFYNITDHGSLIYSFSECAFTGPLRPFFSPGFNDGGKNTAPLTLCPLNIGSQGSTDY
UniProt O60826: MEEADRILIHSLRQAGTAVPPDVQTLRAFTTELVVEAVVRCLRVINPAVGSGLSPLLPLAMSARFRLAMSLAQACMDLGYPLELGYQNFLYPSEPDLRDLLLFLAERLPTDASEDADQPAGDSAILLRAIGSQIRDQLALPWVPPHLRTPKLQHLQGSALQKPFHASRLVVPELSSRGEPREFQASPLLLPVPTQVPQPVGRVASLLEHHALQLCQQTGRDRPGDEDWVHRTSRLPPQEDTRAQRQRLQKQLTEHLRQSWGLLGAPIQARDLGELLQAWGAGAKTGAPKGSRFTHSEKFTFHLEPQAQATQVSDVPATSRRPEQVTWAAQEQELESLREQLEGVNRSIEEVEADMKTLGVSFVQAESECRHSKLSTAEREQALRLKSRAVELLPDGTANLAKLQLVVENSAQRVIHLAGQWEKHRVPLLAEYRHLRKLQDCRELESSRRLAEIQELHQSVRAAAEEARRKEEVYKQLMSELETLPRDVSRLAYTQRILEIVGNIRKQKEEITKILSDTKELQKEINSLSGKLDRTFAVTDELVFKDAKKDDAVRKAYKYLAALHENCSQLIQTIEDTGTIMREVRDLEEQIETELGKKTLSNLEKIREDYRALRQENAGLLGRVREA

CCDC93-Flag = CCDC93-Flag (UniProt Q567U6)
FLAG-tagged TRIM11 = biological target: T2, FLAG-tagged TRIM11 (UniProt Q96F44)
T2 sequence: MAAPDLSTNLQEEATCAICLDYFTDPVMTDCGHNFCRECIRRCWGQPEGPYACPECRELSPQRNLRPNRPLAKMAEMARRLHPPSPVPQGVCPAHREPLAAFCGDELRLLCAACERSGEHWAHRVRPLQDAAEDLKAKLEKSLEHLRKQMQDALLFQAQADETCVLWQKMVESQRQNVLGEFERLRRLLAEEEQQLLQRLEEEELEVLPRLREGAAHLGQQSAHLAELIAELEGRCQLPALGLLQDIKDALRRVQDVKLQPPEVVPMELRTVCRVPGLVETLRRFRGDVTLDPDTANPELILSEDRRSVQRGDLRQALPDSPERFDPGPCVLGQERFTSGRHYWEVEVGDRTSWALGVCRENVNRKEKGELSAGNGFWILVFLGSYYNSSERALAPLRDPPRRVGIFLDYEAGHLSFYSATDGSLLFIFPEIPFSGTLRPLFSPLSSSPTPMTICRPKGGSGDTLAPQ

FLAG-tagged TRIM21 = FLAG-tagged TRIM21 (UniProt P19474)
[2] = biological target: T1, N-terminal Flag-tagged TRIM72 (Flag-TRIM72), full length; remark: listed apart in the source
[3] = biological target: C-terminal Myc-tagged CCDC22 (CCDC22-Myc) (UniProt O60826)

Substance | binding [1] | binding (CCDC93-Flag) | binding (FLAG-tagged TRIM11) | binding (FLAG-tagged TRIM21) | binding [2] | binding [3]
C-terminal Myc-tagged CCDC22 (CCDC22-Myc) (from UniProt O60826 1-627) | binds | binds | binds | binds | binds | –
CCDC22 D540K/E541R-Myc (from UniProt O60826 1-627) | – | – | – | – | binds | –
CCDC93-Flag (from UniProt Q567U6 1-631) | – | – | – | – | – | binds

Source: article doi:10.1101/2025.01.09.632080
